PubChem BioAssay AID504467 (National Center for Advancing Translational Sciences (NCATS), 2011)
Out of some 330,000 compounds screened, about 7,700 (2.3%) were called active. This list was built around the results that the source calls inconclusive (neither active nor inactive); the mix of calls is not that of the screen. The call rests on the fitted dose curve; in most records, active means well fitted inhibition curve with a large enough effect; inconclusive means small, poorly fitted or top-dose-only effect, or effect the other way; inactive means flat fitted curve, though single readings scatter. Potencies of inconclusive entries are doubtful fits and often do not repeat.

assay: qHTS screen for small molecules that inhibit ELG1-dependent DNA repair in human embryonic kidney (HEK293T) cells expressing luciferase-tagged ELG1; conditions: HEK293T ELG1-luciferase reporter, luminescence, 16 h, DNA damage induced by 5-fluorouridine; series mostly up to 46.1 µM; further: nearly all actives have a fitted effect of over 55% in size
How it was run: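 Cells (2,000 per well) received 5-fluorouridine plus test compound or DMSO and were incubated 16 hr at 37 °C, 5% CO2. Luciferase activity was read by luminescence 30 min after ONE-Glo addition; signal suppression marked inhibition of damage-induced ELG1 function.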
Potency means the concentration at half of the fitted maximal effect.

Row | Compound | Potency
1 | Cn1ccnc1C(=O)c1cc(=O)c2ccccc2o1 | inconclusive: 20.6 µM [activator, single point]
2 | CNNC(=S)Nc1cccc(C(F)(F)F)c1 | inactive
3 | NCC[C@H](O)C(=O)N[C@@H]1C[C@H](N)[C@@H](O[C@H]2O[C@H](CN)[C@@H](O)[C@H](O)[C@H]2O)[C@H](O)[C@H]1O[C@H]1O[C@H](CO)[C@@H](O)[C@H](N)[C@H]1O | inactive
4 | Nc1ccc2oc(-c3ccc4nc[nH]c4c3)nc2c1 | inconclusive: 2.31 µM [activator, partial curve]
5 | Cc1cccc(C(=O)NCCc2n[nH]c(=S)n2C)c1 | inactive
6 | Cn1cnc2cc(NCc3cccs3)ccc21 | inconclusive: 14.6 µM [activator, partial curve]
7 | Nc1cc(=O)[nH]c(SCc2ccc(Cl)cc2Cl)n1 | active: 4.11 µM
8 | COc1cc(OC)c(OC)cc1/C=C1\CCC(C2CCCC2)C1=O (configuration not stated) | active: 7.3 µM
9 | COC(=O)c1ccccc1NC(=S)N(Cc1ccc2c(c1)OCO2)Cc1cc2cc(C)ccc2[nH]c1=O | active: 6.51 µM
10 | COc1cc(NC(=O)CN2C(=O)COc3ccc(S(=O)(=O)N4CCCCC4)cc32)cc(OC)c1 | inactive
11 | COC(=O)CCC(=O)Nc1ccc(NC(=O)CCC(=O)OC)cc1 | inactive
12 | CC(C)CN(Cc1c(O)ccc2ccccc12)CC(C)C | inactive
13 | CC(=O)N(Cc1ccc(F)cc1)C1=C(NCCc2ccccc2)C(=O)c2ccccc2C1=O | inconclusive: 23.1 µM [inhibitor, single point]
14 | Cc1n[nH]c(=S)n1-c1ccc(Cl)cc1 | inconclusive: 18.3 µM [activator, partial curve, poor fit]
15 | Cc1cccc(-n2ncc3c(N(C)Cc4ccccc4)ncnc32)c1 | inconclusive: 2.59 µM [activator, full curve]
16 | Cc1[nH]c(SCC(=O)c2c(N)n(C)c(=O)n(C)c2=O)nc1Cc1ccccc1 | inactive
17 | CCOC(=O)C1CCN(C(=O)CSc2ccc(Cl)cc2)CC1 | inconclusive: 14.6 µM [activator, partial curve]
18 | O=C1c2cc(F)ccc2-n2c1nc1ccccc1c2=O | active: 0.184 µM
19 | Cc1ccccc1NC(=O)Nc1ccc(C(F)(F)F)cc1 | inconclusive: 16.4 µM [activator, partial curve]
20 | NC(=O)[C@@H]1CCCN1C(=O)[C@@H](Cc1cnc[nH]1)NC(=O)[C@@H]1CCC(=O)N1 | inconclusive: 20 µM [activator, partial curve, poor fit]
21 | COc1ccc(Cc2nc3ccccc3[nH]2)cc1OC | inactive
22 | Cc1ccc(S(=O)(=O)N2C(=O)c3cccc4cccc2c34)cc1 | inconclusive: 25.9 µM [inhibitor, single point]
23 | COc1cc(/C=C/C(=O)NC(C)CCc2ccccc2)cc(OC)c1OC (configuration not stated) | inconclusive: 29.1 µM [inhibitor, single point]
24 | CCOC(=O)N1c2ccccc2C=CC1OCC (configuration not stated) | inactive

Row | Compound | Potency
25 | O=C1N=c2ccccc2=C1c1sc(=S)n(Cc2ccccc2Cl)c1O | inactive
26 | COc1ccc(-c2cc(C#N)nc(N3CCN(C)CC3)n2)cc1 | inconclusive: 16.4 µM [inhibitor, partial curve]
27 | COc1ccc(C2N(C(=O)N3CCOCC3)CCN2S(=O)(=O)c2ccc(C)cc2)cc1 (configuration not stated) | inactive
28 | O=[N+]([O-])c1ccc2c(c1)nc1n2CCCCC1 | inconclusive: 4.61 µM [inhibitor, single point]
29 | COc1ccc(Br)cc1S(=O)(=O)N1CCCC1 | inactive
30 | COc1ccc(C(=O)C(/C=N/O)=N/Nc2ccc(F)cc2)cc1 | inconclusive: 25.9 µM [inhibitor, single point]
31 | O=C(COc1ccccc1)NC(=S)Nc1cccc(NC(=O)c2ccccc2Cl)c1 | inconclusive: 29.1 µM [inhibitor, single point]
32 | COc1ccc(N2CC(C(=O)NC3CCCCC3)CC2=O)cc1 (configuration not stated) | inconclusive: 29.1 µM [activator, partial curve, poor fit]
33 | CC(=O)N1CCc2cc(S(=O)(=O)NCCC(=O)NCCc3ccc(Cl)cc3)ccc21 | inconclusive: 6.51 µM [inhibitor, partial curve]
34 | CC(C)NC(=O)c1ccccc1NS(=O)(=O)c1ccc(Br)s1 | inconclusive: 18.3 µM [inhibitor, partial curve]
35 | C/C(=C\c1ccccc1)C(=O)NCc1ccco1 | inconclusive: 16.4 µM [activator, partial curve]
36 | C[C@H](CO)N1C[C@H](C)[C@@H](CN(C)C)Oc2c(NC(=O)C3CC3)cccc2C1=O | inconclusive: 20.6 µM [activator, partial curve, poor fit]
37 | COc1cc2cnc(-c3ccccc3)c(-c3ccc(C#N)cc3)c2cc1OC | active: 23.1 µM
38 | C#CC(=O)N(c1ccc(OC)c(OC)c1)C(C(=O)NC1CCCC1)c1cccs1 (configuration not stated) | inconclusive: 14.6 µM [inhibitor, single point]
39 | Cc1ccc(/C=N/NC(=O)c2cccc3ccccc23)o1 | inactive
40 | Cc1cccc(NC(=O)CSCc2cc(=O)n3ccsc3n2)c1C | inconclusive: 9.2 µM [activator, partial curve, poor fit]
41 | CCN1CCCC1CNc1ccc(S(C)(=O)=O)cc1[N+](=O)[O-] (configuration not stated) | inactive
42 | Cc1ccc(Cn2nnc3c(=O)[nH]c(C4CCN(S(=O)(=O)c5ccc(S(=O)(=O)NC6CC6)cc5)CC4)nc32)cc1 | inconclusive: 20.6 µM [inhibitor, partial curve]
43 | COc1ccc(CN2CN(c3ccc(Cl)cc3)C(=O)N(n3cnnc3)C2)cc1 | inactive
44 | O=C(CN(Cc1ccc(Cl)cc1)C(=O)CNS(=O)(=O)c1ccccc1)NCC1CCCO1 (configuration not stated) | inactive
45 | O=C(CSc1nnc(-c2cc3ccccc3cc2O)n1Cc1ccco1)c1ccc(F)cc1 | inconclusive: 29.1 µM [inhibitor, single point]
46 | COc1cccc(NC(=O)CSc2nc3ccccc3n2C)c1 | inconclusive: 29.1 µM [inhibitor, single point]
47 | CCOC(=O)C1(C)/C(=N/Nc2ccccc2Cl)C(=O)C(=O)N1c1ccccc1 (configuration not stated) | inactive

Exported in CSV form: entries from further up.
Row,Compound,Potency
25,O=C1N=c2ccccc2=C1c1sc(=S)n(Cc2ccccc2Cl)c1O,inactive
26,COc1ccc(-c2cc(C#N)nc(N3CCN(C)CC3)n2)cc1,"inconclusive: 16.4 µM [inhibitor, partial curve]"
27,COc1ccc(C2N(C(=O)N3CCOCC3)CCN2S(=O)(=O)c2ccc(C)cc2)cc1 (configuration not stated),inactive
28,O=[N+]([O-])c1ccc2c(c1)nc1n2CCCCC1,"inconclusive: 4.61 µM [inhibitor, single point]"
29,COc1ccc(Br)cc1S(=O)(=O)N1CCCC1,inactive
30,COc1ccc(C(=O)C(/C=N/O)=N/Nc2ccc(F)cc2)cc1,"inconclusive: 25.9 µM [inhibitor, single point]"
31,O=C(COc1ccccc1)NC(=S)Nc1cccc(NC(=O)c2ccccc2Cl)c1,"inconclusive: 29.1 µM [inhibitor, single point]"
32,COc1ccc(N2CC(C(=O)NC3CCCCC3)CC2=O)cc1 (configuration not stated),"inconclusive: 29.1 µM [activator, partial curve, poor fit]"
